Results taken from US20220000975A1.
Results are given in words; binding and its absence hold for the method and conditions named. Some binding calls cover weakened binding; strength is not graded here.

Chains of the proteins cited; added tags and fusions are not shown. Residues count along the entry.
UniProt P05067, residues 672-713: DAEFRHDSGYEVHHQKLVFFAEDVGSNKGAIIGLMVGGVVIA

Assays:
[1] = molecular target: amyloid Aβ plaque in the brain of 5×FAD mice (UniProt P05067); test: co-immunostaining of brain sections 3 hr after microinjection of rAIM, fluorescence microscopy
[2] = molecular target: amyloid Aβ plaque in the brain of 5×FAD mice (UniProt P05067); test: co-immunostaining of brain sections of TG(+) 5×FAD mice, fluorescence microscopy

binding [1] | binding [2] | Binder
binds |  | Recombinant mouse AIM (rAIM) (protein) ESPTKVQLVGGAHRCEGRVEVEHNGQWGTVCDDGWDRRDVAVVCRELNCGAVIQTPRGASYQPPASEQRVLIQGVDCNGTEDTLAQCELNYDVFDCSHEEDAGAQCENPDSDLLFIPEDVRLVDGPGHCQGRVEVLHQSQWSTVCKAGWNLQVSKVVCRQLGCGRALLTYGSCNKNTQGKGPIWMGKMSCSGQEANLRSCLLSRLENNCTHGEDTWMECEDPFELKLVGGDTPCSGRLEVLHKGSWGSVCDDNWGEKEDQVVCKQLGCGKSLHPSPKTRKIYGPGAGRIWLDDVNCSGKEQSLEFCRHRLWGYHDCTHKEDVEVICTDFDV
 | binds | mouse AIM expressed in brain nerve cells under human PDGF-B promoter (transgene, TG(+) 5×FAD mouse) (protein, UniProt Q9QWK4 22-352, looked up) ESPTKVQLVGGAHRCEGRVEVEHNGQWGTVCDDGWDRRDVAVVCRELNCGAVIQTPRGASYQPPASEQRVLIQGVDCNGTEDTLAQCELNYDVFDCSHEEDAGAQCENPDSDLLFIPEDVRLVDGPGHCQGRVEVLHQSQWSTVCKAGWNLQVSKVVCRQLGCGRALLTYGSCNKNTQGKGPIWMGKMSCSGQEANLRSCLLSRLENNCTHGEDTWMECEDPFELKLVGGDTPCSGRLEVLHKGSWGSVCDDNWGEKEDQVVCKQLGCGKSLHPSPKTRKIYGPGAGRIWLDDVNCSGKEQSLEFCRHRLWGYHDCTHKEDVEVICTDFDV
